PubChem BioAssay AID602196 | INSERM | 2012

- Screen: 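Knock-downs that protect lung cancer cells from cisplatin or sensitise them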
- Cells: human A549 lung cancer cells
- Reagent: siRNA pair against human genes
- Time to read-out: 48 h transfection before cisplatin; time from cisplatin to read-out not stated
- Challenge: cisplatin at a dose killing half of control-siRNA cells; exact dose and duration not given
- Measured: 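Shift in cisplatin death relative to control siRNA, from -50 (all cells die) to +50 (no cells die); siRNAs harmful on their own scored 0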
- Scale: two-siRNA summed score (-2 to +2): higher = both siRNAs protect from cisplatin killing; -2 means both sensitise
- Rule for the call: 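Each siRNA scores 0 if harmful alone by LDH or WST-1, otherwise +1 if it reduces and -1 if it increases cisplatin killing; a gene is active when both siRNAs agree (sum +2 or -2)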
- Meaning of the calls: active = both siRNAs shift cisplatin killing the same way; inactive = no consistent shift, or siRNA harmful alone
The whole screen tested about 23,000 reagents; shown is a part drawn at random. Over the whole deposit, 455 (2%) were called active. 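Active includes both protection and sensitisation; some change values fall well beyond the stated -50 to +50 range.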 Further read-outs or replicates are left out here. Not given: the amount of reagent.

Against OR5K1, the values are two-siRNA summed score (-2 to +2) = 0; inactive.
RAG2 scored two-siRNA summed score (-2 to +2) = 1; inactive.
NT5E gave two-siRNA summed score (-2 to +2) = 1; inactive.
For PNPLA5, the entry reads two-siRNA summed score (-2 to +2) = 0; inactive.
AQR scored two-siRNA summed score (-2 to +2) = 0; inactive.
Against KMT2C, the values are two-siRNA summed score (-2 to +2) = 0; inactive.
After knock-down of GGA2 the results were two-siRNA summed score (-2 to +2) = 0; inactive.
Against ZNF280D, the entry reads two-siRNA summed score (-2 to +2) = -1; inactive.
Against TSHR, the values are two-siRNA summed score (-2 to +2) = 0; inactive.
For LOC442267, the entry reads two-siRNA summed score (-2 to +2) = 0; inactive.
Against ZNF202, the values are two-siRNA summed score (-2 to +2) = 0; inactive.
With knock-down of HRH1 the results were two-siRNA summed score (-2 to +2) = 1; inactive.
Knock-down of LOC387715 gave: two-siRNA summed score (-2 to +2) = 0; inactive.
Depletion of TRIP11 gave: two-siRNA summed score (-2 to +2) = 1; inactive.
After knock-down of LIAS, the screen gave two-siRNA summed score (-2 to +2) = 0; inactive.
Silencing of AP1G1 gave: two-siRNA summed score (-2 to +2) = 0; inactive.
Depletion of AHNAK2 gave: two-siRNA summed score (-2 to +2) = 0; inactive.
With knock-down of LOC387790, the record shows two-siRNA summed score (-2 to +2) = 0; inactive.
Silencing of GCFC2 gave: two-siRNA summed score (-2 to +2) = -1; inactive.
After knock-down of LOC441745, the record shows two-siRNA summed score (-2 to +2) = 0; inactive.
PLD2 scored two-siRNA summed score (-2 to +2) = 0; inactive.
For NBL1, the entry reads two-siRNA summed score (-2 to +2) = 0; inactive.
Against DUSP1, the entry reads two-siRNA summed score (-2 to +2) = 0; inactive.
With knock-down of AGPS-DT, the record shows two-siRNA summed score (-2 to +2) = 0; inactive.
For LYSMD1, the entry reads two-siRNA summed score (-2 to +2) = 0; inactive.
Against P2RY12, the values are two-siRNA summed score (-2 to +2) = 0; inactive.

Targets above whose gene name starts with T or t (2):
TSHR: two-siRNA summed score (-2 to +2) = 0; call = inactive
TRIP11: two-siRNA summed score (-2 to +2) = 1; call = inactive

The list goes on:
After knock-down of LRP8, the record shows two-siRNA summed score (-2 to +2) = 0; inactive.
After knock-down of RNF152 the results were two-siRNA summed score (-2 to +2) = 1; inactive.
Silencing of ALKBH4 gave: two-siRNA summed score (-2 to +2) = 0; inactive.
LOC283157 gave two-siRNA summed score (-2 to +2) = 1; inactive.
For SETX, the entry reads two-siRNA summed score (-2 to +2) = 1; inactive.
Depletion of ELN gave: two-siRNA summed score (-2 to +2) = 0; inactive.
With knock-down of LRRC27, the screen gave two-siRNA summed score (-2 to +2) = 0; inactive.
For LRRC52 the deposit lists two-siRNA summed score (-2 to +2) = 1; inactive.
With knock-down of EPHX4, the record shows two-siRNA summed score (-2 to +2) = 0; inactive.
Depletion of LOC441421 resulted in: two-siRNA summed score (-2 to +2) = 0; inactive.
After knock-down of HSP90AB1, the screen gave two-siRNA summed score (-2 to +2) = 0; inactive.
LOC390633 scored two-siRNA summed score (-2 to +2) = 1; inactive.
Against LOC401095, the entry reads two-siRNA summed score (-2 to +2) = 0; inactive.
After knock-down of CNR1 the results were two-siRNA summed score (-2 to +2) = 0; inactive.
